# Laboratory results: PMC5607322
# B1: HA-tagged B. subtilis SpoIVA (protein, UniProt P35149 1-492)
# chain: MEKVDIFKDIAERTGGDIYLGVVGAVRTGKSTFIKKFMELVVLPNISNEADRARAQDELPQSAAGKTIMTTEPKFVPNQAMSVHVSDGLDVNIRLVDCVGYTVPGAKGYEDENGPRMINTPWYEEPIPFHEAAEIGTRKVIQEHSTIGVVITTDGTIGDIARSDYIEAEERVIEELKEVGKPFIMVINSVRPYHPETEAMRQDLSEKYDIPVLAMSVESMRESDVLSVLREALYEFPVLEVNVNLPSWVMVLKENHWLRESYQESVKETVKDIKRLRDVDRVVGQFSEFEFIESAGLAGIELGQGVAEIDLYAPDHLYDQILKEVVGVEIRGRDHLLELMQDFAHAKTEYDQVSDALKMVKQTGYGIAAPALADMSLDEPEIIRQGSRFGVRLKAVAPSIHMIKVDVESEFAPIIGTEKQSEELVRYLMQDFEDDPLSIWNSDIFGRSLSSIVREGIQAKLSLMPENARYKLKETLERIINEGSGGLIAIIL
# Target: C. difficile SpoVM-CPD-His6 (Clostridium difficile)
# Experiment: pull-down
binder,measurement,value
B1,binding,binds

# Results are given in words; binding and its absence hold for the method and conditions named. Binding seen in cells or lysates may run through a third protein. Binding can be weak; no strength is given. Tags and fused reporters may be left off the sequences shown.
